PubChem BioAssay AID1671190 (National Center for Advancing Translational Sciences (NCATS), 2021)
Out of some 580,000 compounds screened, about 6,100 (1.1%) were called active. Inconclusive results, whose numbers are uncertain, are shown with a selection of clear calls. The call rests on the fitted dose curve; in most records, active means well fitted inhibition curve with a large enough effect; inconclusive means small, poorly fitted or top-dose-only effect, or another doubt; inactive means no such curve, though single readings can be large or run the other way. A potency beside an inconclusive call is a rough fit, not a confirmed value.

Amino acid sequences for entries named in this document (tags omitted). A change or cut given only in a name is not applied to a line headed by its entry.
UniProt P18054: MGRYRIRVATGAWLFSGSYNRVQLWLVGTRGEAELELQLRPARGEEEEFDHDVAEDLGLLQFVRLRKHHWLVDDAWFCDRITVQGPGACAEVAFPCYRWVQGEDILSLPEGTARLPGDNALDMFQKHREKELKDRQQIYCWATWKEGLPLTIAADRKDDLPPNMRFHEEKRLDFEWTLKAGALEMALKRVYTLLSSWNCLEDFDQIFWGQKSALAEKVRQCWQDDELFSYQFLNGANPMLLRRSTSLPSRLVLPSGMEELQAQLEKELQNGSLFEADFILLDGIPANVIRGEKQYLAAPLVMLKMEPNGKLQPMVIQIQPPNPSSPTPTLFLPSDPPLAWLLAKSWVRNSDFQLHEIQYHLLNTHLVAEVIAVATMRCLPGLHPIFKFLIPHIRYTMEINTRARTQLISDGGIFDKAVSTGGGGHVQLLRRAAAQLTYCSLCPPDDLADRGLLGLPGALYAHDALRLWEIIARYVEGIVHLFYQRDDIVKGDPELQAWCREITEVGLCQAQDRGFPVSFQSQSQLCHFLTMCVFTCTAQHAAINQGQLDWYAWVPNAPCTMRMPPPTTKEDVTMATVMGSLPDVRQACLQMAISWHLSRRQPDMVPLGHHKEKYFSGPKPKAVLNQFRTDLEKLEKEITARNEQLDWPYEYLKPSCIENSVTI

target: Polyunsaturated fatty acid lipoxygenase ALOX12 (Homo sapiens) (UniProt P18054); experiment: Primary qHTS assay for inhibitors of human arachidonate 12S-lipoxygenase (ALOX12): Round 2; details: purified 12hLO, xylenol orange hydroperoxide absorbance; activity change, negative = inhibition: at 108 µM (top of the series) unless noted
Method in brief: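 Purified human 12hLO (150 nM final) in 25 mM Hepes, 0.01% Triton X-100, pH 7.0 was preincubated 15 min at room temperature with compound. Then 40 uM arachidonic acid was added, 30 min. Hydroperoxide was read by Fe-XO absorbance ratio 573/405 nm.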
On the % scale 0 is the no-effect control and ±100 the full control effect; potency means the concentration at half of the fitted maximal effect.

SMILES	activity change, negative = inhibition	Potency
O/N=C/c1cc[n+](C/C=C\c2ccccc2)cc1	inactive: -2.67%	
O=C1C(NS(=O)(=O)c2cccs2)=C(N2CCN(c3cccc(Cl)c3)CC2)C(=O)c2ccccc21		inconclusive: 31.6 µM [inhibitor, single point]
Cc1ccc(N2CC(C(=O)NCCC(C)C)CC2=O)cc1 (stereo not given)		inconclusive: 70.8 µM [inhibitor, partial curve, poor fit]
CCn1nc(C(=O)OCC(=O)c2ccc3c(c2)NC(=O)CO3)c2ccccc2c1=O	inactive: 2.01%	
COc1ccc(C(=O)NCC2(c3ccccc3)CCOCC2)cc1		inconclusive: 126 µM [inhibitor, single point]
CC(C)CCO	inactive: 2.23%	
CCn1c(SCC(=O)Nc2ccc(C)cc2F)nnc1C(C)NC(=O)c1ccco1 (stereo not given)	inactive: -0.322%	
CN(C(=O)CC1C(=O)NCCN1Cc1ccc2ccccc2c1)C1CCOCC1 (stereo not given)		inconclusive: 28.2 µM [inhibitor, partial curve, poor fit]
N#Cc1cccc(S(=O)(=O)NCc2nnc3ccccn23)c1		inconclusive: 31.6 µM [inhibitor, full curve, poor fit]
COc1ccc(OCCCCc2c(C)n[nH]c2C)cc1		inconclusive: 35.5 µM [inhibitor, partial curve, poor fit]
COc1ccc(OC)c2sc(N3CCN(C(=O)c4ccc5c(c4)CCCC5)CC3)nc12		inconclusive: 56.2 µM [inhibitor, partial curve, poor fit]
COc1ccc(C(=O)COC(=O)CNC(=O)c2ccc(Cl)cc2Cl)c(OC)c1		inconclusive: 12.6 µM [inhibitor, partial curve, poor fit]
O=C(O)C[C@@H]1CCN(C(=O)C2CCCC2)C[C@@H]1CCN(CCN1CCOCC1)c1ccccc1	inactive: 49.8%	
CCCCCNC(=O)C(C#N)c1nc2ccccc2nc1N1CCCC1 (stereo not given)	inactive: -23.7%	
Cn1c(=O)c2cc(NC(=O)NCCc3cccs3)ccc2n1C/C=C/c1ccccc1		inconclusive: 50.1 µM [inhibitor, partial curve, poor fit]
O=C(Nc1ccccc1C(=O)Nc1ccncc1)c1ccc([N+](=O)[O-])cc1		inconclusive: 112 µM [inhibitor, partial curve, poor fit]
CCNC(=O)c1sc(=S)n(CC)c1N		inconclusive: 79.4 µM [inhibitor, single point]
CCC1CC2(C)NC(=O)c3c(sc4c3CC(C)(C)OC4)N2C1=O (stereo not given)		inconclusive: 100 µM [inhibitor, single point]
CC1CC(C)(C)NC(=S)N1CCC(=O)NCCc1ccc(Cl)cc1 (stereo not given)		inconclusive: 70.8 µM [inhibitor, partial curve, poor fit]
O=C(CN1CCN(Cc2cccc(Cl)c2)C1=O)NCc1ccc(F)cc1		inconclusive: 141 µM [inhibitor, partial curve, poor fit]
CCC/C=C/c1ccc(CN2C(CC(C)C)C(=O)N(Cc3cn(CCC4OCCCO4)nn3)CCS2(=O)=O)cc1 (stereo not given)		inconclusive: 100 µM [inhibitor, single point]
OC[C@@H]1O[C@H](CN(Cc2cccc(Cl)c2)Cc2cccc(Cl)c2)[C@H](N2CCN(c3ccccn3)CC2)[C@@H]1O		inconclusive: 11.2 µM [inhibitor, full curve]

SMILES	activity change, negative = inhibition	Potency
c1ccc2nc(N3CCOCC3)cnc2c1		inconclusive: 12.6 µM [inhibitor, partial curve, poor fit]
CC(C)OCc1ccc(C(=O)N2CCN(CC(=O)N3CCCC3)CC2)cc1	inconclusive: -34.2% [inhibitor]	
O=c1c2cn[nH]c2[nH]c(=S)n1-c1ccccc1		active: 6.31 µM
N#Cc1ncc(C(F)(F)F)cc1Sc1ccccc1N	inactive: 46.5%	
CCc1ccc(OC(=O)c2ccccc2F)cc1	inactive: -29.8%	
COc1cc2[nH]c(=S)nc(NCC3CCCO3)c2cc1OC (stereo not given)		inconclusive: 25.1 µM [inhibitor, partial curve, poor fit]
CCOc1ccc(CCNC(=O)c2nn(-c3ccc(OC)c(Cl)c3)c(=O)c3c2c2ccccc2n3C)cc1OCC	inactive: -19.7%	
C[C@@H]1C(=O)O[C@H]2[C@H]1CC[C@@]1(C)Cc3sc(NC(=O)c4c(Cl)cccc4Cl)nc3[C@@H](C)[C@H]21		inconclusive: 50.1 µM [inhibitor, partial curve]
CC1(C)Cc2c(sc(NC(=O)C(=O)NCCO)c2C#N)CO1		inconclusive: 2.51 µM [inhibitor, full curve, poor fit]
CC(Sc1nc(CN2CCOCC2)nc2ccccc12)C(=O)Nc1ccc(F)cc1F (stereo not given)	inactive: -26.1%	
C=CCOC(=O)C1=C(C)NC(SCC(=O)N(CC)CC)=C(C#N)C1c1ccco1 (stereo not given)		inactive
Cc1noc(C)c1S(=O)(=O)N1CCCC1c1cc(C(C)C)no1 (stereo not given)	inactive: -1.83%	
Cn1c(=O)c2cc(C(=O)NCCCN3CCN(c4cccc(Cl)c4)CC3)sc2c2ccccc21		inconclusive: 112 µM [inhibitor, single point]
O=C1C(n2ccc3ccccc32)c2cccc(F)c2N1Cc1ccc(Cl)nc1 (stereo not given)		inconclusive: 12.6 µM [inhibitor, partial curve, poor fit]
O=C(NCc1cccn1Cc1ccccc1)NC12CC3CC(CC(C3)C1)C2	inactive: -26.8%	
O=C(COC(=O)c1ccc(-c2ccccc2)cc1C(=O)OCC(=O)c1ccccc1)c1ccccc1	inactive: -48.1%	
COc1cccc(CNc2nc3cc(-c4ccccc4C)sc3c(=O)n2C)c1OC		inconclusive: 39.8 µM [inhibitor, partial curve, poor fit]
O=C1NC[C@H](CCCCN2C[C@H](Cc3ccc(O)cc3)N(Cc3ccccc3)C(=O)C2=O)N(Cc2ccccc2)C1=O		inconclusive: 100 µM [inhibitor, single point]
CCOC(=O)C1=C(CNCc2ccc(C)cc2)NC(=O)NC1c1cc(C)ccc1C (stereo not given)		inconclusive: 79.4 µM [inhibitor, partial curve, poor fit]
Oc1ccccc1/C=N/n1cnn(Cc2ccccc2Cl)c1=S		inconclusive: 56.2 µM [inhibitor, partial curve, poor fit]
CCOCCCNCc1cccc(Br)c1		inconclusive: 0.501 µM [inhibitor, full curve, poor fit]
COc1ccc(N2CCN(C(=O)c3ccc(Cl)c(S(=O)(=O)N4CCCC4)c3)CC2)cc1		inconclusive: 89.1 µM [inhibitor, partial curve, poor fit]

Sorted by molecular weight (rising): 4 of the compounds above
SMILES	activity change, negative = inhibition	Potency
CC1(C)Cc2c(sc(NC(=O)C(=O)NCCO)c2C#N)CO1		inconclusive: 2.51 µM [inhibitor, full curve, poor fit]
CC1CC(C)(C)NC(=S)N1CCC(=O)NCCc1ccc(Cl)cc1 (stereo not given)		inconclusive: 70.8 µM [inhibitor, partial curve, poor fit]
O=C(CN1CCN(Cc2cccc(Cl)c2)C1=O)NCc1ccc(F)cc1		inconclusive: 141 µM [inhibitor, partial curve, poor fit]
CN(C(=O)CC1C(=O)NCCN1Cc1ccc2ccccc2c1)C1CCOCC1 (stereo not given)		inconclusive: 28.2 µM [inhibitor, partial curve, poor fit]

The results go on:

SMILES	activity change, negative = inhibition	Potency
Cc1csc(N/N=C/c2ccccc2F)n1	inactive: -4.35%	
CN1/C(=C\C(=O)COC(=O)CN2C(=O)C3CC=CCC3C2=O)C(C)(C)c2ccccc21 (stereo not given)		inconclusive: 89.1 µM [inhibitor, partial curve, poor fit]
COc1ccc(NC(=O)c2c(NCc3ccc(N(C)C)cc3)sc3c2CCC3)cc1		inconclusive: 35.5 µM [inhibitor, partial curve]
CC(C)CNC(=O)NC(=O)COC(=O)Cc1c[nH]c2ccccc12		inconclusive: 0.282 µM [inhibitor, full curve, poor fit]
CC(C)(C)c1ccc(/C=N/O)cc1		inconclusive: 79.4 µM [inhibitor, partial curve, poor fit]
CCCc1[nH]nc2c1C(c1ccc(O)cc1OCC)C(C#N)=C(N)O2 (stereo not given)	inactive: 0%	
O=C(COC(=O)c1cc[n+]([O-])cc1)NCCc1ccc(Cl)cc1Cl		inconclusive: 28.2 µM [inhibitor, single point]
O=C(O)COc1ccccc1/C=C1\SC(=S)N(/N=C/c2ccccc2O)C1=O		inconclusive: 70.8 µM [inhibitor, partial curve, poor fit]
COC(=O)C1CCCCN1S(=O)(=O)c1c(F)cccc1F (stereo not given)		inconclusive: 28.2 µM [inhibitor, partial curve, poor fit]
CSCCC(NC(=O)c1ccc2ccccc2n1)C(=O)NC1CC1 (stereo not given)		inconclusive: 112 µM [inhibitor, single point]
CC(=O)N1CCC(=NNc2ccnc3cc(Cl)ccc23)CC1		inconclusive: 39.8 µM [inhibitor, partial curve, poor fit]
O=c1[nH]c2ccc(S(=O)(=O)NCCO)cc2[nH]1		inconclusive: 1.78 µM [inhibitor, full curve, poor fit]
Cc1cc(C)c2nc(N3CCN(C(=O)c4cccs4)CC3)sc2c1		inconclusive: 5.62 µM [inhibitor, full curve, poor fit]
COc1cc(N2CCOCC2)ccc1C=C(C#N)C#N	inactive: 4.68%	
CCC(C)c1ccc(NC(=O)C2CCCN(c3ncccn3)C2)cc1 (stereo not given)	inactive: 0%	
CCOC(=O)C1CCC(CNCc2c(Cl)cccc2Cl)CC1 (stereo not given)		inconclusive: 2.51 µM [inhibitor, full curve, poor fit]
CN(C)CCCNS(=O)(=O)c1ccc(NC2CCCCCC2)c([N+](=O)[O-])c1		inconclusive: 100 µM [inhibitor, partial curve, poor fit]
O=C(Nc1cccc2nsnc12)c1ccc(-c2cccc(Cl)c2)o1		inconclusive: 3.55 µM [inhibitor, full curve, poor fit]
O=C(NC12CC3CC(CC(C3)C1)C2)N1CCN(S(=O)(=O)c2ccc(Cl)cc2)CC1		inconclusive: 0.0891 µM [inhibitor, full curve, poor fit]
Cc1ccc(C)c(-n2c3nc(=O)[nH]c(=O)c-3cc3c(C)nn(-c4ccccc4)c32)c1	inactive: -7.23%	
CCOC(=O)C1(C)CCCN1C(=O)c1ccccc1OC (stereo not given)		inconclusive: 2.82 µM [inhibitor, full curve, poor fit]
